Reference: patent US8252936B2, “Insecticidal compounds” (Syngenta Crop Protection LLC, priority 2006, dated 2012)
Some entries share one result that the patent states for a list of compounds. At least one compound was matched to its structure with a doubt left.

Tests used:
Type in all cases: in vivo
Heliothis virescens = Heliothis virescens (tobacco budworm) egg/artificial diet test; settings: application rate 200 ppm (concentration in well 18 ppm), eggs 0-24 h old on artificial diet, 4 days; egg mortality, larval mortality, growth regulation
Diabrotica balteata = Diabrotica balteata (corn root worm) artificial diet test; settings: application rate 200 ppm (concentration in well 18 ppm), L2 larvae, 5 days, larval mortality, growth regulation
Aedes aegypti = settings: application rate 2 ppm, L2 larvae with nutrition mixture, 2 days; mortality, growth inhibition
Plutella xylostella = Plutella xylostella (diamond back moth) artificial diet test; settings: application rate 200 ppm (concentration in well 18 ppm), L2 larvae, 6 days, larval mortality, growth regulation
Spodoptera littoralis = Spodoptera littoralis (Egyptian cotton leafworm) leaf disc spray test; settings: application rate 200 ppm, sprayed cotton leaf discs, L1 larvae, 3 days after treatment; mortality, feeding behaviour, growth regulation

Cc1cc(C(F)(C(F)(F)F)C(F)(F)F)cc(C)c1NC(=O)c1cc(NC(=O)c2ccc(Cl)nc2)cs1 [Compound C15]
at least 80%: control of Heliothis virescens (Heliothis virescens) | control of Diabrotica balteata (Diabrotica balteata) | control of Aedes aegypti (Aedes aegypti)

Cc1cc(C(=O)Nc2cc(C(=O)Nc3c(C)cc(C(F)(C(F)(F)F)C(F)(F)F)cc3C)cs2)n(C)n1 [Compound A16]
at least 80%: control of Plutella xylostella (Plutella xylostella) | control of Aedes aegypti (Aedes aegypti)

Cc1cc(C(F)(C(F)(F)F)C(F)(F)F)cc(C)c1NC(=O)c1cc(NC(=O)c2cccc(C(F)(F)F)c2F)cs1 [Compound C13]
at least 80%: control of Spodoptera littoralis (Spodoptera littoralis) | control of Heliothis virescens (Heliothis virescens) | control of Plutella xylostella (Plutella xylostella) | control of Aedes aegypti (Aedes aegypti)

Cc1cc(C(F)(C(F)(F)F)C(F)(F)F)cc(C)c1NC(=O)c1cc(NC(=O)c2ncc(C(F)(F)F)cc2Cl)cs1 [Compound C11]
at least 80%: control of Heliothis virescens (Heliothis virescens) | control of Aedes aegypti (Aedes aegypti)

Cc1cc(C(F)(C(F)(F)F)C(F)(F)F)cc(C)c1NC(=O)c1cc(NC(=O)c2ccc(Cl)s2)cs1 [Compound C20]
at least 80%: control of Heliothis virescens (Heliothis virescens) | control of Diabrotica balteata (Diabrotica balteata) | control of Aedes aegypti (Aedes aegypti)

Cc1cc(C(F)(C(F)(F)F)C(F)(F)F)cc(C)c1NC(=O)c1cc(NC(=O)c2cccnc2Cl)cs1 [Compound C1]
at least 80%: control of Spodoptera littoralis (Spodoptera littoralis) | control of Heliothis virescens (Heliothis virescens) | control of Plutella xylostella (Plutella xylostella) | control of Diabrotica balteata (Diabrotica balteata) | control of Aedes aegypti (Aedes aegypti)

Cc1cc(C(F)(C(F)(F)F)C(F)(F)F)cc(C)c1NC(=O)c1cc(NC(=O)c2cccc(Cl)c2)cs1 [Compound C5]
at least 80%: control of Spodoptera littoralis (Spodoptera littoralis) | control of Heliothis virescens (Heliothis virescens) | control of Plutella xylostella (Plutella xylostella) | control of Diabrotica balteata (Diabrotica balteata) | control of Aedes aegypti (Aedes aegypti)

Cc1cc(C(F)(C(F)(F)F)C(F)(F)F)cc(C)c1NC(=O)c1cc(NC(=O)c2ccccc2Cl)cs1 [Compound C6]
at least 80%: control of Spodoptera littoralis (Spodoptera littoralis) | control of Heliothis virescens (Heliothis virescens) | control of Plutella xylostella (Plutella xylostella) | control of Diabrotica balteata (Diabrotica balteata) | control of Aedes aegypti (Aedes aegypti)

Cc1cc(C(F)(C(F)(F)F)C(F)(F)F)cc(C)c1NC(=O)c1cc(NC(=O)c2ccc(Br)o2)cs1 [Compound C9]
at least 80%: control of Spodoptera littoralis (Spodoptera littoralis) | control of Heliothis virescens (Heliothis virescens) | control of Plutella xylostella (Plutella xylostella) | control of Diabrotica balteata (Diabrotica balteata) | control of Aedes aegypti (Aedes aegypti)

Cc1cc(C(F)(C(F)(F)F)C(F)(F)F)cc(C)c1NC(=O)c1cc(NC(=O)c2cccc(F)c2F)cs1 [Compound C19]
at least 80%: control of Spodoptera littoralis (Spodoptera littoralis) | control of Heliothis virescens (Heliothis virescens) | control of Plutella xylostella (Plutella xylostella) | control of Diabrotica balteata (Diabrotica balteata) | control of Aedes aegypti (Aedes aegypti)

Cc1cc(C(F)(C(F)(F)F)C(F)(F)F)cc(C)c1NC(=O)c1cc(NC(=O)c2ccnc(Cl)c2)cs1 [Compound C7]
at least 80%: control of Heliothis virescens (Heliothis virescens) | control of Plutella xylostella (Plutella xylostella) | control of Diabrotica balteata (Diabrotica balteata) | control of Aedes aegypti (Aedes aegypti)

Cc1cc(C(F)(C(F)(F)F)C(F)(F)F)cc(C)c1NC(=O)c1csc(NC(=O)c2ccco2)c1 [Compound A24]
at least 80%: control of Aedes aegypti (Aedes aegypti)

Cc1cc(C(F)(C(F)(F)F)C(F)(F)F)cc(C)c1NC(=O)c1csc(NC(=O)c2ccc(C#N)cc2)c1 [Compound A3]
at least 80%: control of Aedes aegypti (Aedes aegypti)

Cc1cc(C(F)(C(F)(F)F)C(F)(F)F)cc(C)c1NC(=O)c1csc(NC(=O)c2ccccc2Br)c1 [Compound A28]
at least 80%: control of Spodoptera littoralis (Spodoptera littoralis) | control of Heliothis virescens (Heliothis virescens) | control of Plutella xylostella (Plutella xylostella) | control of Aedes aegypti (Aedes aegypti)

Cc1cc(C(F)(C(F)(F)F)C(F)(F)F)cc(C)c1NC(=O)c1csc(NC(=O)c2cccc(F)c2F)c1 [Compound A46]
at least 80%: control of Spodoptera littoralis (Spodoptera littoralis) | control of Heliothis virescens (Heliothis virescens) | control of Plutella xylostella (Plutella xylostella) | control of Diabrotica balteata (Diabrotica balteata) | control of Aedes aegypti (Aedes aegypti)

Cc1cc(C(F)(C(F)(F)F)C(F)(F)F)cc(C)c1NC(=O)c1csc(NC(=O)c2cnc3ccccc3n2)c1 [Compound A22]
at least 80%: control of Heliothis virescens (Heliothis virescens) | control of Aedes aegypti (Aedes aegypti)

CSc1ccc(C(=O)Nc2cc(C(=O)Nc3c(C)cc(C(F)(C(F)(F)F)C(F)(F)F)cc3C)cs2)cc1 [Compound A42]
at least 80%: control of Heliothis virescens (Heliothis virescens) | control of Aedes aegypti (Aedes aegypti)

Cc1cc(C(F)(C(F)(F)F)C(F)(F)F)cc(C)c1NC(=O)c1csc(NC(=O)c2cccc(C(F)(F)F)c2F)c1 [Compound A31]
at least 80%: control of Spodoptera littoralis (Spodoptera littoralis) | control of Heliothis virescens (Heliothis virescens) | control of Plutella xylostella (Plutella xylostella) | control of Diabrotica balteata (Diabrotica balteata) | control of Aedes aegypti (Aedes aegypti)

Cc1cc(C(F)(C(F)(F)F)C(F)(F)F)cc(C)c1NC(=O)c1csc(NC(=O)c2ccc3c(c2)OCCCO3)c1 [Compound A35]
at least 80%: control of Heliothis virescens (Heliothis virescens) | control of Plutella xylostella (Plutella xylostella) | control of Aedes aegypti (Aedes aegypti)

Cc1cc(C(F)(C(F)(F)F)C(F)(F)F)cc(C)c1NC(=O)c1csc(NC(=O)c2cccnc2Cl)c1 [Compound A1, 2-chloro-N-{4-[2,6-dimethyl-4-(1,2,2,2-tetrafluoro-1-trifluoro-methyl-ethyl)-phenylcarbamoyl]-thiophen-2-yl}-nicotinamide]
at least 80%: control of Aedes aegypti (Aedes aegypti)

Cc1cc(C(F)(C(F)(F)F)C(F)(F)F)cc(C)c1NC(=O)c1cc(NC(=O)c2ccc(C#N)cc2)cs1 [Compound C3]
at least 80%: control of Aedes aegypti (Aedes aegypti)

Cc1cc(C(F)(C(F)(F)F)C(F)(F)F)cc(C)c1NC(=O)c1cc(NC(=O)c2ccccc2Br)cs1 [Compound C10]
at least 80%: control of Spodoptera littoralis (Spodoptera littoralis) | control of Heliothis virescens (Heliothis virescens) | control of Plutella xylostella (Plutella xylostella) | control of Diabrotica balteata (Diabrotica balteata) | control of Aedes aegypti (Aedes aegypti)

Cc1cc(C(F)(C(F)(F)F)C(F)(F)F)cc(C)c1NC(=O)c1csc(NC(=O)c2ccc3c(c2)CCO3)c1 [Compound A41]
at least 80%: control of Heliothis virescens (Heliothis virescens) | control of Plutella xylostella (Plutella xylostella) | control of Aedes aegypti (Aedes aegypti)

Cc1cc(C(F)(C(F)(F)F)C(F)(F)F)cc(C)c1NC(=O)c1cc(NC(=O)c2cncc(Br)c2)cs1 [Compound C8]
at least 80%: control of Heliothis virescens (Heliothis virescens) | control of Plutella xylostella (Plutella xylostella) | control of Diabrotica balteata (Diabrotica balteata) | control of Aedes aegypti (Aedes aegypti)

Cc1cc(C(F)(C(F)(F)F)C(F)(F)F)cc(C)c1NC(=O)c1csc(NC(=O)c2cnn(-c3ccccc3)c2C)c1 [Compound A4]
at least 80%: control of Aedes aegypti (Aedes aegypti)
